Measured data: PubChem BioAssay AID504774 (Drosophila RNAi Screening Center, 2011)

Screen: 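Fly genes whose loss alters survival after alkylation damage to DNA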 (primary screen)
Cell system: Drosophila Kc167 cells
Knock-down reagent: long dsRNA against Drosophila genes, about 0.25 µg dsRNA per well
Timing: about 6 days: 3 days knock-down, then 3 days with or without MMS
Conditions: methyl methanesulphonate 0.004% (w/v) for 3 days after knock-down
Read-out: 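Viability in wells given MMS, read as ATP luminescence, normalised by quantiles plate by plate and averaged across replicates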
Direction: mean viability with MMS: higher = more surviving cells after MMS
The deposit covers about 23,000 reagents; below is an unselected part of those that have a named target and a result. 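Values are quantile-normalised luminescence on an arbitrary scale; higher means more cells surviving MMS.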 Names joined by + are all predicted targets of the reagent. Further read-outs or replicates are left out here.

mean viability with MMS, by gene and reagent
CG15923 (GeneID 42443): DRSC15129 3.62e6
CG15046 (GeneID 32833): DRSC19622 3.29e6
Cadps (GeneID 49968): DRSC21057 3.61e6; DRSC22200 3.39e6
wmd (GeneID 37727): DRSC04436 3.59e6
nht (GeneID 34902): DRSC01976 3.57e6
tou (GeneID 36241): DRSC06006 3.94e6; DRSC22710 3.11e6
Git (GeneID 36122): DRSC06620 3.39e6
Atf3 (GeneID 43867): DRSC17225 2.87e6; DRSC22996 3.54e6
vimar (GeneID 35609): DRSC05026 3.64e6
Hil (GeneID 37328): DRSC05989 3.62e6; DRSC06395 3.49e6
CG17159 + CG17162: DRSC20899 3.50e6; DRSC20900 3.50e6
CG6271 (GeneID 43252): DRSC16006 3.59e6
yrt (GeneID 41656): DRSC16559 3.37e6
CG31710 (GeneID 318907): DRSC01089 3.69e6; DRSC22863 3.40e6
CG1946 (GeneID 35720): DRSC06804 3.48e6
Polr1F (GeneID 33963): DRSC02278 3.22e6
CG5910 (GeneID 40264): DRSC11786 3.59e6
Cirl (GeneID 35846): DRSC21942 2.86e6; DRSC23235 3.70e6
Psc (GeneID 36431): DRSC07518 3.57e6
CG9107 (GeneID 33843): DRSC03138 3.43e6
CG1909 (GeneID 43800): DRSC17150 3.58e6

In a second layout: results already given
gene,DRSC id,mean viability with MMS
CG31710 (GeneID 318907),DRSC22863,3.40e6
CG1946 (GeneID 35720),DRSC06804,3.48e6
